# Experimental data from article PMC10190533, “Engineering Escherichia coli to Utilize Erythritol as Sole Carbon Source” (Advanced Science, 2022).
# Target: T1, EryD (Ochrobactrum spp. (isolated strain)) (UniProt A6X312)
# T1 sequence (looked up, limits assumed): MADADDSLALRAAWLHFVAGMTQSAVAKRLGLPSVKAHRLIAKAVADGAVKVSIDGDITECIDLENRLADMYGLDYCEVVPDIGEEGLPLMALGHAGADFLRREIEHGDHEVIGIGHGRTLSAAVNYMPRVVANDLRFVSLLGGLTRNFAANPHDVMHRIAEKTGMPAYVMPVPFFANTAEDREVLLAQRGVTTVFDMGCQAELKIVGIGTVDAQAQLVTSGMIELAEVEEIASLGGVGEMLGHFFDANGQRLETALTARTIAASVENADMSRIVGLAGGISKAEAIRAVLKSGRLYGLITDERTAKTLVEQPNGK
# Assay: EMSA
# Conditions: 200 nM DNA, EryD titration; 10 mM Tris-HCl pH 7.5, 1 mM EDTA, 100 mM NaCl, 0.1 mM DTT, 10 ug/mL BSA, 5% glycerol; 30 min, room temperature; 7.5% PAGE in 1x TAE; recombinant protein; label: 5' FAM
sequence,measurement,value
TATCAAACGCCTTCAGCAATTCTGCCGTATTGTCGTTATGGAAACGGATGATGCGGCTGAATTAGACCGCCCGGAGATTACCCTCGACCATTGTCATCACGCTTACCGGATAGGCAAAAGCCTCCGCCAAAGCGGTGCAGGACGCGACAGACGAGATCATGATAGCCTCCACATGAATTCCAGGGCCCCGCTCCTCCGTGCATCCTGGAAACAGATGCGCCGCAATCAAAACCTATGATAGCGGCGTGTTATTAACTCCAATAATGATGTTATAAAGCTCGAAAGCTGTCAATCGGATGTTTTCGAAACACCGGTGAAATAGCACAATTTCGCGCCGAATCTCGATCACGATCTAGAGAAATCCACTACATAATTCGTTATCAATCGCACTATTCACAGCACCGTCTTTTCTCGCAAAGCCAGCCACAAAGATACTCACAAACTTCTATATTTTCTTTTATTTTCAATGAATTAAACATATTTAAAACCGAAGAAACATTAAGCTATTGATGGAAAACAGTGGGAAAACCGCACTCGAAGGCGCGGAGATTTCCCCTACATTCACTCTTTGGTGAAAAAAAATGCGCCATCTAGAAAATTTTACAGACAACGTGATAGCGTTATGTTATCTCCAGCATACGCCATCGCCCGATTTCATTATAAACAGGGCTGCGAGCGACGTATTTTCGGTCGCGGGAGGAATCCAAATGTCAATGAAAGCACATAGCCGCC (double strand) [pEryF-732 (eryE-eryA intergenic region)],binding result,binds

# Tags and fusion partners may be left off the protein sequences shown.
